Data taken from publication PMC11612967.
Results are given in words; binding and its absence hold for the method and conditions named. In cells and extracts the contact can be indirect. Some entries that bind do so weakly or less than the wild type.

Key:
Test in all cases: pull-down; S. pombe Smc5/6 subunits co-expressed in Sf9 cells by baculovirus, one subunit tagged (N- or C-terminal); pellets processed as for the small-scale expression in E. coli; single affinity step; Coomassie-stained SDS-PAGE
[1] = biological target: T1, S. pombe Nse1 (S. pombe) (UniProt Q53EK2)
T1 sequence: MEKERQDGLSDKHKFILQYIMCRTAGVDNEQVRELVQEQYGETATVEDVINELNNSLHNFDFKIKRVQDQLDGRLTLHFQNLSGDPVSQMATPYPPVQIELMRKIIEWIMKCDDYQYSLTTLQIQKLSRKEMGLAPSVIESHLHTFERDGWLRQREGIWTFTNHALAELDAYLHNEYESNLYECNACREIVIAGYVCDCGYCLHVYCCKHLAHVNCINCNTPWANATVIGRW

[2] = biological target: T2, S. pombe Nse3 (S. pombe) (UniProt Q9Y7U4)
T2 sequence: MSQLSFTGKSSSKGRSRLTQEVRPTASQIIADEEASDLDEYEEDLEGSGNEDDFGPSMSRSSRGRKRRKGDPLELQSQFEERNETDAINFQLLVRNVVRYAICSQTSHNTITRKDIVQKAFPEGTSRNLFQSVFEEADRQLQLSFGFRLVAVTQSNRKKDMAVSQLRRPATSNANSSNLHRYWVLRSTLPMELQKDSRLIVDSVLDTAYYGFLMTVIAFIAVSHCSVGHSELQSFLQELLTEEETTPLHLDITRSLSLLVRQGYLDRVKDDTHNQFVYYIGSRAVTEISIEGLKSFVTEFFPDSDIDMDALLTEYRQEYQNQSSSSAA

[3] = biological target: T3, S. pombe Nse2 (S. pombe) (UniProt Q4PIR3)
T3 sequence: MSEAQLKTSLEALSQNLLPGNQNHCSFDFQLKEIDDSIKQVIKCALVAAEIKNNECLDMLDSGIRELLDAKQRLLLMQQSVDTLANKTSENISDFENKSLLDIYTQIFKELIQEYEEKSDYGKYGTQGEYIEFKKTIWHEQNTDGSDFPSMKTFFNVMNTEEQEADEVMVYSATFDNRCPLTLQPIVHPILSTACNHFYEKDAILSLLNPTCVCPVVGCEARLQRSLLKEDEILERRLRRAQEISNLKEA

[4] = biological target: T4, S. pombe Nse4 (S. pombe) (UniProt Q6BDR8)
T4 sequence: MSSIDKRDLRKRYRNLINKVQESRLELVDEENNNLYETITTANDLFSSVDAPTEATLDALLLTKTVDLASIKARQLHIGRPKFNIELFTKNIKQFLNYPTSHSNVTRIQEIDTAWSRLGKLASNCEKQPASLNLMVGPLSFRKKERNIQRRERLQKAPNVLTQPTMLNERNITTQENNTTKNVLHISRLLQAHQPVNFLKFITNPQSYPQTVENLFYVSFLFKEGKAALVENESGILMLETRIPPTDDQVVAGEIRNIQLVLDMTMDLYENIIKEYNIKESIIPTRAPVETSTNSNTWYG

Measured: binding

B1: S. pombe Smc6 (protein, UniProt P53692 1-1140)
chain: MTTELTNVSLEEAITEKTSENRRKRDSDVLQTEEVDLSNVKRIRASRNQDNRPERQSRLQRSSSLIEQVRGNEDGENDVLNQTRETNSNFDNRVGVIECIHLVNFMCHDSLKINFGPRINFVIGHNGSGKSAILTGLTICLGAKASNTNRAPNMKSLVKQGKNYARISVTISNRGFEAYQPEIYGKSITIERTIRREGSSEYRLRSFNGTVISTKRDELDNICDHMGLQIDNPMNILTQDTARQFLGNSSPKEKYQLFMKGIQLKQLEENYSLIEQSLINTKNVLGNKKTGVSYLAKKEEEYKLLWEQSRETENLHNLLEQKKGEMVWAQVVEVEKELLLAEKEFQHAEVKLSEAKENLESIVTNQSDIDGKISSKEEVIGRAKGETDTTKSKFEDIVKTFDGYRSEMNDVDIQKRDIQNSINAAKSCLDVYREQLNTERARENNLGGSQIEKRANESNNLQREIADLSEQIVELESKRNDLHSALLEMGGNLTSLLTKKDSIANKISDQSEHLKVLEDVQRDKVSAFGKNMPQLLKLITRETRFQHPPKGPMGKYMTVKEQKWHLIIERILGNVINGFIVRSHHDQLILKELMRQSNCHATVVVGKYDPFDYSSGEPDSQYPTVLKIIKFDDDEVLHTLINHLGIEKMLLIEDRREAEAYMKRGIANVTQCYALDPRNRGYGFRIVSTQRSSGISKVTPWNRPPRIGFSSSTSIEAEKKILDDLKKQYNFASNQLNEAKIEQAKFKRDEQLLVEKIEGIKKRILLKRREVNSLESQELSVLDTEKIQTLERRISETEKELESYAGQLQDAKNEEHRIRDNQRPVIEEIRIYREKIQTETQRLSSLQTELSRLRDEKRNSEVDIERHRQTVESCTNILREKEAKKVQCAQVVADYTAKANTRCERVPVQLSPAELDNEIERLQMQIAEWRNRTGVSVEQAAEDYLNAKEKHDQAKVLVARLTQLLQALEETLRRRNEMWTKFRKLITLRTKELFELYLSQRNFTGKLVIKHQEEFLEPRVYPANRNLATAHNRHEKSKVSVQGLSGGEKSFATICMLLSIWEAMSCPLRCLDEFDVFMDAVNRLVSIKMMVDSAKDSSDKQFIFITPQDMGQIGLDKDVVVFRLSDPVVSSSALPPSTAP
binds: all assays above
